The source of these data is publication PMC11802874, “The hypolipidemic effect of MI-883, the combined CAR agonist/ PXR antagonist, in diet-induced hypercholesterolemia model” (Nature Communications, 2025).

Chains of the proteins cited; added tags and fusions are not shown. Residues count along the entry.
UniProt Q15788, residues 583-783: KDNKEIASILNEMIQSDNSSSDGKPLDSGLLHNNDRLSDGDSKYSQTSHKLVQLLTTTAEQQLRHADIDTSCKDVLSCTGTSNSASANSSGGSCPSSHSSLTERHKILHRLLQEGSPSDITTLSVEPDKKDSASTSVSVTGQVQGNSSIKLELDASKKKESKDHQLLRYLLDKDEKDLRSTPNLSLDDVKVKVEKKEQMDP

Results are given in words; binding and its absence hold for the method and conditions named. Some entries that bind do so weakly or less than the wild type. Where a sequence is shown, tags or fusion partners need not be part of it.

For assay [1], the target named is T1, GAL4-DBD/PXR(132-188) (human) (UniProt O75469).
T1 sequence: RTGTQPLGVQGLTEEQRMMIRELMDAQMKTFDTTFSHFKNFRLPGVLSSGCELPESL
As to the kind of experiment: two-hybrid; human PXR LBD assembly assay in HepG2 cells: GAL4-DBD/PXR(132-188) and VP16-AD/PXR(189-434) with pGL4-G5 reporter; cells treated with MI-883 for 24 h.

The target of assay [2] is GAL4-DBD/NCOA1-RID (residues 583–783) (UniProt Q15788). As to the kind of experiment: condition: only cells treated with MI-883 without rifampicin; two-hybrid; mammalian two-hybrid PXR-coactivator recruitment assay in HepG2 cells: GAL4-DBD/coactivator-RID and VP16-AD/PXR(108-434), pGL4-G5 reporter; cells treated with MI-883 alone (indicated concentrations) for 24 h.
For assay [3] the target is unchanged. The assay is described as follows: two-hybrid; mammalian two-hybrid PXR-coactivator recruitment assay in HepG2 cells: GAL4-DBD/coactivator-RID and VP16-AD/PXR(108-434), pGL4-G5 reporter; cells treated with 10 µM rifampicin for 24 h.
The target is the same in assay [4]. As to the kind of experiment: condition: only with MI-883 added to 10 µM rifampicin; two-hybrid; mammalian two-hybrid PXR-coactivator recruitment assay in HepG2 cells: GAL4-DBD/coactivator-RID and VP16-AD/PXR(108-434), pGL4-G5 reporter; cells treated with 10 µM rifampicin and MI-883 for 24 h.

B1: VP16-AD/PXR(189-434) (domain or fragment, UniProt O75469 189-434)
chain: QAPSREEAAKWSQVRKDLCSLKVSLQLRGEDGSVWNYKPPADSGGKEIFSLLPHMADMSTYMFKGIISFAKVISYFRDLPIEDQISLLKGAAFELCQLRFNTVFNAETGTWECGRLSYCLEDTAGGFQQLLLEPMLKFHYMLKKLQLHEEEYVLMQAISLFSPDRPGVLQHRVVDQLQEQFAITLKSYIECNRPQPAHRFLFLKIMAMLTELRSINAQHTQRLLRIQDIHPFATPLMQELFGITGS
As to B1, the binding result in assay [1] was “binds”.

B2: VP16-AD/PXR(108-434) (domain or fragment, UniProt O75469 108-434)
chain: KKEMIMSDEAVEERRALIKRKKSERTGTQPLGVQGLTEEQRMMIRELMDAQMKTFDTTFSHFKNFRLPGVLSSGCELPESLQAPSREEAAKWSQVRKDLCSLKVSLQLRGEDGSVWNYKPPADSGGKEIFSLLPHMADMSTYMFKGIISFAKVISYFRDLPIEDQISLLKGAAFELCQLRFNTVFNAETGTWECGRLSYCLEDTAGGFQQLLLEPMLKFHYMLKKLQLHEEEYVLMQAISLFSPDRPGVLQHRVVDQLQEQFAITLKSYIECNRPQPAHRFLFLKIMAMLTELRSINAQHTQRLLRIQDIHPFATPLMQELFGITGS
As for B2, the binding entry is recorded as “no binding” in assay [2], “binds” in assay [3] and “no binding” in assay [4].
